Laboratory results published in the supplement of paper PMC10849652.
The list shows a part of the results.

The chains behind the UniProt entries cited, without tags or fusion partners. Where a name states a change or a piece, a line headed by the entry shows the natural chain unless it says otherwise.
UniProt Q02241: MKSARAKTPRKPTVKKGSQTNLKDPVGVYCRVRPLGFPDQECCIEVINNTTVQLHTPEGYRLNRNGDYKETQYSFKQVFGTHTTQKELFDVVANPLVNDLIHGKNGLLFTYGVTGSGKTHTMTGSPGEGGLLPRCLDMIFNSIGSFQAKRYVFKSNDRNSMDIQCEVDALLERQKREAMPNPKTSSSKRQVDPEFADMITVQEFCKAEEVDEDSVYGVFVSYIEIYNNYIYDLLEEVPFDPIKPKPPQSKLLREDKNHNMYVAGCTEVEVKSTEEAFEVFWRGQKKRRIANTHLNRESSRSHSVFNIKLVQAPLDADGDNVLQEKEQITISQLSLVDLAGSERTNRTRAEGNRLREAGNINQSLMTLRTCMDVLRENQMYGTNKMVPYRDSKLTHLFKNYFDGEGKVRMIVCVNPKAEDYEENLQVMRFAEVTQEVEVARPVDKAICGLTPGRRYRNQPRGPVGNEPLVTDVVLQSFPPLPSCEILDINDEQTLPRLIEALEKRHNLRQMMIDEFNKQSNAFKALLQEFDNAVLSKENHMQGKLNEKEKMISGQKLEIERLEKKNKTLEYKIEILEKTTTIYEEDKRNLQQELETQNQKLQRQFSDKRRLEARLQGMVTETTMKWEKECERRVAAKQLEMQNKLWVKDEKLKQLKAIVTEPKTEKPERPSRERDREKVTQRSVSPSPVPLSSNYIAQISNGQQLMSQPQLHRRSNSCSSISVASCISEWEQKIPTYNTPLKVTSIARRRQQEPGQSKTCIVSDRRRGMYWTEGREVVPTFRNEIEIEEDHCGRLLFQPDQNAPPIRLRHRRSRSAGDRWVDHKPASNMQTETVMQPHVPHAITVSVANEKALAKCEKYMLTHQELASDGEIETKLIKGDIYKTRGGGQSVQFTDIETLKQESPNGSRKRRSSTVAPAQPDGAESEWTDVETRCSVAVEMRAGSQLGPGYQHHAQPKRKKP
UniProt Q9ULI4: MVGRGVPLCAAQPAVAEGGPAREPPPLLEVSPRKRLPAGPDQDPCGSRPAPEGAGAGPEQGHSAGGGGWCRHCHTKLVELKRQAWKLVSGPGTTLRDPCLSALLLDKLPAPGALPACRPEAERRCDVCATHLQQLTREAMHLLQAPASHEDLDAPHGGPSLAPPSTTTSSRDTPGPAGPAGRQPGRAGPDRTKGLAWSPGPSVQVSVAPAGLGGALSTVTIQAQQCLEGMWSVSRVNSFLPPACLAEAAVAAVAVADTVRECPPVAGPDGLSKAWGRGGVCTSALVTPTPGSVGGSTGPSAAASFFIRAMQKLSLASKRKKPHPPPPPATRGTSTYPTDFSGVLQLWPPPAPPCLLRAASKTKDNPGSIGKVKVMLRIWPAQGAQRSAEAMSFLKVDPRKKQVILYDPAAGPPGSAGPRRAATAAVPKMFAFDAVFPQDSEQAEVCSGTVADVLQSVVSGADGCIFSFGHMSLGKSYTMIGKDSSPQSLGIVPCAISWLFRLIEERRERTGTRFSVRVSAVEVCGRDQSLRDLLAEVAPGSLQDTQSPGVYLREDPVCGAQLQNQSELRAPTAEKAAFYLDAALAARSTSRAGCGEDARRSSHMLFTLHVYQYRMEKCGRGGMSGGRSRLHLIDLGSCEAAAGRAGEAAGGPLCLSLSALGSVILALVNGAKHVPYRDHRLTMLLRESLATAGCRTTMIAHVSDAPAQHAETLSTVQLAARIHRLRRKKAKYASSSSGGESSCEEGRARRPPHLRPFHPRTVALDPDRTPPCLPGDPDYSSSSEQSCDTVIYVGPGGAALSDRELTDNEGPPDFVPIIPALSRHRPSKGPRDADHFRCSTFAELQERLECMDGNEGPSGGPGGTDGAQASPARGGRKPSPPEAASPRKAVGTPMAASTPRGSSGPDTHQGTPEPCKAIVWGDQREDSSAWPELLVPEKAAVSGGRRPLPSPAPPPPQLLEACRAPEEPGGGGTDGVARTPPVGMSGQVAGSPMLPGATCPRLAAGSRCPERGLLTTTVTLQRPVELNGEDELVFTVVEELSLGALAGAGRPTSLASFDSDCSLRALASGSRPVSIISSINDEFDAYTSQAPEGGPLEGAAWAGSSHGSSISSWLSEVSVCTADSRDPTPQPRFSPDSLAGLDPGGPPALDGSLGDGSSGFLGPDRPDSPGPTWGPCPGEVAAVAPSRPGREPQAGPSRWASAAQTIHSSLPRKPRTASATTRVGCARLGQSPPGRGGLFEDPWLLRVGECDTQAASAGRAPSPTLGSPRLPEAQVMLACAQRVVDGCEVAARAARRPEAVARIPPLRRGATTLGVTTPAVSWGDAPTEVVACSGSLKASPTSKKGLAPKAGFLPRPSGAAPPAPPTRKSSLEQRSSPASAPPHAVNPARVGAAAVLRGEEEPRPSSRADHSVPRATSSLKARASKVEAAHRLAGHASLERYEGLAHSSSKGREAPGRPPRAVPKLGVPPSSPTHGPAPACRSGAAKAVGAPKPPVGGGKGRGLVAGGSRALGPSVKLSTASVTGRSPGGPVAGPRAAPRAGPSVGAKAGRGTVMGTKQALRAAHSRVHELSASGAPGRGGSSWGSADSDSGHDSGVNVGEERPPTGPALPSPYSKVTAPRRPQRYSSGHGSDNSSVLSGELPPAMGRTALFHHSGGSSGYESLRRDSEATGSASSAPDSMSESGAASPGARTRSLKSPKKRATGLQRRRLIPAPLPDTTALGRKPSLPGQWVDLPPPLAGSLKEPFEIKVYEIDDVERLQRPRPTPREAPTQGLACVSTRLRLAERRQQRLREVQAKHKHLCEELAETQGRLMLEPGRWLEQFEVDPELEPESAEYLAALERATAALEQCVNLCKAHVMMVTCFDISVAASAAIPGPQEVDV
UniProt Q8N6L1: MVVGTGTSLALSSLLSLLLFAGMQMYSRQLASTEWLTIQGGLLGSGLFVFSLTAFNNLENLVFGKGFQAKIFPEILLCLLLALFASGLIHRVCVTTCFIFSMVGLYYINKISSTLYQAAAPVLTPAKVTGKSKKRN
UniProt Q13351: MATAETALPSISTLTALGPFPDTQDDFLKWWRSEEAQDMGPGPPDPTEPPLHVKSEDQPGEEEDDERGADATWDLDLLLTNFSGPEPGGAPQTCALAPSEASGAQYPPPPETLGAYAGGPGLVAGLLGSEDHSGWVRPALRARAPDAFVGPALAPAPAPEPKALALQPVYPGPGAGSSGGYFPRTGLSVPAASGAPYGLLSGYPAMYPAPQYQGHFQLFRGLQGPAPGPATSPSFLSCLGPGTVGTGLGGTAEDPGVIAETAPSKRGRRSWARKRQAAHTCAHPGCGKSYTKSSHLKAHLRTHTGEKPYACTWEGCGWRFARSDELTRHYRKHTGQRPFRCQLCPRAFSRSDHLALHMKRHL
UniProt O15066: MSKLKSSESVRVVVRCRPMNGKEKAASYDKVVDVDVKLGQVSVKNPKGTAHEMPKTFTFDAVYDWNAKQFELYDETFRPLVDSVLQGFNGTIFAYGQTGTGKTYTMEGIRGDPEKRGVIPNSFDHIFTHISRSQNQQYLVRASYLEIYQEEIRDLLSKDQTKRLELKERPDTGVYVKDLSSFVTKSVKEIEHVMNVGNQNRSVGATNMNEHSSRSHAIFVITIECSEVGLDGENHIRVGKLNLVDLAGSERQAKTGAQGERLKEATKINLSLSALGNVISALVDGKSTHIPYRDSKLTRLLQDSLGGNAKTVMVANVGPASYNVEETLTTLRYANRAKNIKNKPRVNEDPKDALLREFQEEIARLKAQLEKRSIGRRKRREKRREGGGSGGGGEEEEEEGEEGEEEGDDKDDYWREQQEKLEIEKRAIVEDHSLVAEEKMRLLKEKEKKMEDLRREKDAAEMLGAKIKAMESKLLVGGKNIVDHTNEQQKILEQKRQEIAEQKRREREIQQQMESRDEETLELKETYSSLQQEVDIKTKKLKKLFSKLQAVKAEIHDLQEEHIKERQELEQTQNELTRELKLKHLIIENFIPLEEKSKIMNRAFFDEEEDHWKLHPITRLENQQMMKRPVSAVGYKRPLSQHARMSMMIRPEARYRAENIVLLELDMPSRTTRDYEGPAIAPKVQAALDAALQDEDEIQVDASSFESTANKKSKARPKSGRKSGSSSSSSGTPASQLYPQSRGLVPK
UniProt O15037: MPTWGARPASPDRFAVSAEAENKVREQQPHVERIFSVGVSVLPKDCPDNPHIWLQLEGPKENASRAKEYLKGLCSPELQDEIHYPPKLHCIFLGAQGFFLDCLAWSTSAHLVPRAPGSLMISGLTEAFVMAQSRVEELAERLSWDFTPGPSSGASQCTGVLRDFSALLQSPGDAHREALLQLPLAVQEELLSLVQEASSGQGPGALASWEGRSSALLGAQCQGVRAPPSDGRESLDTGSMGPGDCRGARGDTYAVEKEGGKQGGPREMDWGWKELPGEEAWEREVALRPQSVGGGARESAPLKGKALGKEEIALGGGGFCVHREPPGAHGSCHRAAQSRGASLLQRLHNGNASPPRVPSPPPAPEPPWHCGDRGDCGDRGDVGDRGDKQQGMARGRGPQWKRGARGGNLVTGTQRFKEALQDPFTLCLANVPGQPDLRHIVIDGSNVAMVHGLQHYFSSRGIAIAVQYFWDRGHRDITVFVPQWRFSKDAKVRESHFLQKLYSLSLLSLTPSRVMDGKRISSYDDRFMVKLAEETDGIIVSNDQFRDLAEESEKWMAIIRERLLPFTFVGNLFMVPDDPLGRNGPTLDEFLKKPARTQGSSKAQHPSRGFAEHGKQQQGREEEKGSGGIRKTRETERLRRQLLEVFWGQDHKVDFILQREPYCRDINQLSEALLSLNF
UniProt Q6P597: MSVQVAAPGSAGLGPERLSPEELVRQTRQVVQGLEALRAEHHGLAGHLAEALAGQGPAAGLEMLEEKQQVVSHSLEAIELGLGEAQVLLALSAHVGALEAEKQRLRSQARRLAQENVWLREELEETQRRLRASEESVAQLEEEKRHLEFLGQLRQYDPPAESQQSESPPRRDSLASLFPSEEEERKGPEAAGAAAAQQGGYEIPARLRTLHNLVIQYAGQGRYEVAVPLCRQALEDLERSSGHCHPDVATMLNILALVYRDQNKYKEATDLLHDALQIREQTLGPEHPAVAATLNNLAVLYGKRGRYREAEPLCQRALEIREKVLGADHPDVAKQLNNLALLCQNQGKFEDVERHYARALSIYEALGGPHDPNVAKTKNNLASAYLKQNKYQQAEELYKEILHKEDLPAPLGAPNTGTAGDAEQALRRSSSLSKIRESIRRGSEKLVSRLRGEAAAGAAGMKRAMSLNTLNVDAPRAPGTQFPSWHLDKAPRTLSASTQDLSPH
UniProt O75164: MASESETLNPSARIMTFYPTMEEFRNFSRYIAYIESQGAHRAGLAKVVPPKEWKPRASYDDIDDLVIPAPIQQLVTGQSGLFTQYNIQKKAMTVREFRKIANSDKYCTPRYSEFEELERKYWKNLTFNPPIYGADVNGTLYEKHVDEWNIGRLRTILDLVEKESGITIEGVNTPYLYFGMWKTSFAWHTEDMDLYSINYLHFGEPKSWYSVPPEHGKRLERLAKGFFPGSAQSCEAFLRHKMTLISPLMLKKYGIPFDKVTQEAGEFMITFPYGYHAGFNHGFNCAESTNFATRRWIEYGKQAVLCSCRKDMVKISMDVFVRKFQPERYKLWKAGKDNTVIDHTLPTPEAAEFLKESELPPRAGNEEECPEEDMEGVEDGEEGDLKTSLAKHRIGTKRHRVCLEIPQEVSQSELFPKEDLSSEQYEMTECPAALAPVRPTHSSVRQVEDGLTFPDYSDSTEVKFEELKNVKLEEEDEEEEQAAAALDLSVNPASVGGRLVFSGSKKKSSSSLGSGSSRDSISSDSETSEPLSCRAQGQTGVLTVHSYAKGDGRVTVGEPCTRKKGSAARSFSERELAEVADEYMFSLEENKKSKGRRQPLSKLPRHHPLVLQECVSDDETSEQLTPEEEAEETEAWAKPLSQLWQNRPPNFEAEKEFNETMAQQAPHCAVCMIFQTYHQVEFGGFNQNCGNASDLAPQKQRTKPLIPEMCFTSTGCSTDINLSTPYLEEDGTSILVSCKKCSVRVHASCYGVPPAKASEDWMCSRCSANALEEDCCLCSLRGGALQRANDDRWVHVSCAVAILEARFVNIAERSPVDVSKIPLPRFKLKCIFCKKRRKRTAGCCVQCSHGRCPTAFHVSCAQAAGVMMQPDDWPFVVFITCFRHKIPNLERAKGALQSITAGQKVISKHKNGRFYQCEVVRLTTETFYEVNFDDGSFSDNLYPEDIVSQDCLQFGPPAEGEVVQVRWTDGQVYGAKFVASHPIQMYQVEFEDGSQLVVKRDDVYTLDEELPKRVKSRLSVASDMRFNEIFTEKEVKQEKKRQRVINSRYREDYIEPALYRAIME

Legend:
Assay in all cases: log2 fold change, soluble protein after heating vs DMSO (PISA); higher = thermal stabilisation; K562 lysate, 10 uM; active = over 0.2 and 3.5 SD of the protein, either way, in both replicates (recomputed)
vemurafenib = compound: CCCS(=O)(=O)Nc1ccc(F)c(C(=O)c2c[nH]c3ncc(-c4ccc(Cl)cc4)cc23)c1F [vemurafenib]
How it was run: (§1)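 Soluble protein was defined as the supernatant remaining after 21,000xg for 90 min, following pooling of heated aliquots and adjustment to 0.5% NP-40 at 4°C. Before that, crude K562 extract at 1 mg/mL protein in PBS pH 7.4 with 1 mM MgCl2 was treated with 10 μM compound for 30 min and heated for 3 min across 48°C-58°C. Quantification used TMTpro 16plex LC-MS/MS with channel sums equalised, and values are log-two fold changes in thermal stability relative to solvent controls from duplicates.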

[1] = compound: CCCS(=O)(=O)Nc1ccc(F)c(C(=O)c2c[nH]c3ncc(Cl)cc23)c1F
How it was run: as §1

[2] = compound: CC[C@@H]1C(=O)N(C)c2cnc(Nc3ccc(C(=O)NC4CCN(C)CC4)cc3OC)nc2N1C1CCCC1
How it was run: as §1

volasertib = compound: CC[C@@H]1C(=O)N(C)c2cnc(Nc3ccc(C(=O)N[C@H]4CC[C@H](N5CCN(CC6CC6)CC5)CC4)cc3OC)nc2N1C(C)C [volasertib]
How it was run: as §1

[3] = compound: CCn1c(C(=O)N(C2CC2)C2CC2)cc2c3c(ncn3C)c(Nc3cc(C)n(C)n3)nc21
How it was run: as §1

[4] = compound: CCn1cc(-c2ccnc3[nH]c(-c4cccc(CN(C)C)c4)cc23)c(-c2ccc(NC(=O)N(C)C)cc2)n1
How it was run: as §1

[5] = compound: CN1CCC(CNc2ccc3ncc(-c4cccc(OC(F)(F)F)c4)n3n2)CC1
How it was run: as §1

saracatinib = compound: CN1CCN(CCOc2cc(OC3CCOCC3)c3c(Nc4c(Cl)ccc5c4OCO5)ncnc3c2)CC1 [saracatinib]
How it was run: as §1

sotrastaurin = compound: CN1CCN(c2nc(C3=C(c4c[nH]c5ccccc45)C(=O)NC3=O)c3ccccc3n2)CC1 [sotrastaurin]
How it was run: as §1

barasertib = compound: CCN(CCCOc1ccc2c(Nc3cc(CC(=O)Nc4cccc(F)c4)[nH]n3)ncnc2c1)CCOP(=O)(O)O [barasertib]
How it was run: as §1

Target | log2 fold change (vemurafenib) | log2 fold change [1] | log2 fold change [2] | log2 fold change (volasertib) | log2 fold change [3] | log2 fold change [4] | log2 fold change [5] | log2 fold change (saracatinib) | log2 fold change (sotrastaurin) | log2 fold change (barasertib)
KRAS (UniProt P01116) | inactive: 0.061 | inactive: 0.019 | inactive: 0.019 | inactive: 0.063 | inactive: -0.053 | active: -0.278 | inactive: 0.06 | inactive: 0.066 | inactive: 0.012 | –
KIF23 isoform 2 (UniProt Q02241) | inactive: 0.135 | inactive: 0.002 | inactive: 0.05 | inactive: 0.032 | inactive: -0.012 | inactive: 0.007 | inactive: -0.003 | inactive: -0.002 | inactive: 0.031 | inactive: 0.05
KIF26A (UniProt Q9ULI4) | inactive: 0.135 | – | inactive: 0.08 | – | inactive: -0.01 | inactive: -0.076 | inactive: -0.005 | inactive: -0.067 | inactive: -0.033 | inactive: 0
KRTCAP2 isoform 2 (UniProt Q8N6L1) | inactive: -0.067 | inactive: 0.005 | inactive: 0.082 | inactive: 0.041 | inactive: -0.043 | inactive: -0.218 | inactive: 0.193 | inactive: -0.006 | inactive: 0.059 | –
KRI1 (UniProt Q8N9T8) | inactive: -0.079 | – | inactive: 0.005 | – | inactive: 0.021 | inactive: -0.005 | inactive: -0.014 | inactive: 0 | inactive: 0.008 | inactive: -0.03
KIZ (UniProt Q2M2Z5) | inactive: 0.053 | – | inactive: 0.002 | – | inactive: -0.02 | inactive: 0.018 | inactive: 0.1 | inactive: -0.116 | inactive: -0.013 | inactive: -0.034
KIF20B isoform 2 (UniProt Q96Q89) | inactive: 0.062 | – | inactive: 0.03 | – | inactive: -0.129 | inactive: 0.143 | inactive: 0.061 | inactive: -0.041 | inactive: 0.079 | –
KLF1 (UniProt Q13351) | – | inactive: 0.062 | – | inactive: -0.011 | inactive: -0.01 | – | – | – | – | inactive: -0.035
KMT2E (UniProt Q8IZD2) | inactive: -0.055 | – | inactive: 0.158 | – | inactive: 0.021 | inactive: 0.002 | inactive: -0.081 | inactive: 0.041 | inactive: 0.064 | –
KIF3B (UniProt O15066) | inactive: -0.118 | inactive: 0.028 | inactive: -0.069 | inactive: 0 | inactive: -0.166 | inactive: -0.225 | inactive: 0.067 | – | inactive: -0.01 | inactive: -0.086
KRIT1 (UniProt O00522) | inactive: -0.084 | inactive: 0.051 | inactive: -0.009 | inactive: 0.036 | inactive: -0.052 | – | – | inactive: -0.103 | inactive: 0.049 | inactive: -0.084
KTN1 (UniProt G3V5Q0) | inactive: 0.136 | – | inactive: 0.067 | – | – | – | – | – | – | inactive: 0.018
KHNYN (UniProt O15037) | inactive: 0.075 | – | inactive: -0.011 | – | inactive: 0.079 | – | – | inactive: 0.076 | inactive: 0.084 | inactive: -0.018
KLC3 isoform 3 (UniProt Q6P597) | – | inactive: -0.016 | inactive: -0.264 | inactive: -0.099 | – | inactive: -0.097 | inactive: -0.051 | – | inactive: 0.108 | inactive: 0.354
KDM4A (UniProt O75164) | inactive: -0.009 | – | inactive: -0.056 | – | inactive: -0.014 | inactive: -0.063 | inactive: 0.027 | inactive: 0.046 | inactive: -0.023 | inactive: -0.06
KLHDC10 (UniProt Q6PID8) | inactive: 0.032 | – | inactive: -0.01 | – | inactive: 0.034 | inactive: -0.069 | inactive: 0.097 | inactive: -0.109 | inactive: -0.047 | inactive: 0.064
KDM4B (UniProt O94953) | inactive: 0.06 | – | inactive: -0.075 | – | inactive: 0.175 | inactive: 0.085 | inactive: 0.073 | inactive: -0.011 | inactive: -0.07 | –
KIF16B isoform 2 (UniProt Q96L93) | inactive: 0.127 | – | inactive: 0.019 | – | inactive: 0.107 | inactive: -0.227 | inactive: 0.156 | inactive: 0.223 | inactive: 0.011 | –
KLHL22 (UniProt Q53GT1) | inactive: -0.11 | – | inactive: 0.014 | – | inactive: 0.064 | inactive: -0.156 | inactive: -0.054 | inactive: -0.437 | – | –

Only log2 fold change [3] and log2 fold change (barasertib) (2 entries from above):

| Target | log2 fold change [3] | log2 fold change (barasertib) |
| --- | --- | --- |
| KRI1 (UniProt Q8N9T8) | inactive: 0.021 | inactive: -0.03 |
| KMT2E (UniProt Q8IZD2) | inactive: 0.021 | – |
